The values below come from PMC11594562 (International Journal of Molecular Sciences, 2024).

The nature of this data set: general procedure: Fmoc solid-phase peptide synthesis; Rink Amide MBHA resin (0.78 mmol/g); N,N′-diisopropylcarbodiimide/Oxyma Pure; HATU/DIPEA for the hydrazinoacetic acid.
The mark [1] stands for this setting: conjugation step, Analytical HPLC (C18).
Setting [2] is: whole synthesis, Analytical HPLC (C18).

Regarding “HELM PEPTIDE1{[Cc1nn(CC(=O)[*:2])c2c1C(=O)[C@@]1(C)C(=C2)Oc2c3c(c(C)c(O)c21)O/C(=C\c1ccc(Br)cc1)C3=O].I.K.K.I.L.S.K.I.K.K.L.L.K.[am]}$$$$V2.0 (SMILES CC[C@H](C)[C@H](NC(=O)Cn1nc(C)c2c1C=C1Oc3c4c(c(C)c(O)c3[C@@]1(C)C2=O)O/C(=C\c1ccc(Br)cc1)C4=O)C(=O)N[C@@H](CCCCN)C(=O)N[C@@H](CCCCN)C(=O)N[C@H](C(=O)N[C@@H](CC(C)C)C(=O)N[C@@H](CO)C(=O)N[C@@H](CCCCN)C(=O)N[C@H](C(=O)N[C@@H](CCCCN)C(=O)N[C@@H](CCCCN)C(=O)N[C@@H](CC(C)C)C(=O)N[C@@H](CC(C)C)C(=O)N[C@@H](CCCCN)C(N)=O)[C@@H](C)CC)[C@@H](C)CC)”, the conjugation yield (conjugation step) came to 63%. Also, under setting [1], the “final HPLC purity” value is listed as 94%.

On to “HELM PEPTIDE1{[Cc1nn(CC(=O)[*:2])c2c1C(=O)[C@@]1(C)C(=C2)Oc2c(-c3csc(N/N=C/c4ccc(Br)cc4)n3)c(O)c(C)c(O)c21].I.K.K.I.L.S.K.I.K.K.L.L.K.[am]}$$$$V2.0 (SMILES CC[C@H](C)[C@H](NC(=O)Cn1nc(C)c2c1C=C1Oc3c(-c4csc(N/N=C/c5ccc(Br)cc5)n4)c(O)c(C)c(O)c3[C@@]1(C)C2=O)C(=O)N[C@@H](CCCCN)C(=O)N[C@@H](CCCCN)C(=O)N[C@H](C(=O)N[C@@H](CC(C)C)C(=O)N[C@@H](CO)C(=O)N[C@@H](CCCCN)C(=O)N[C@H](C(=O)N[C@@H](CCCCN)C(=O)N[C@@H](CCCCN)C(=O)N[C@@H](CC(C)C)C(=O)N[C@@H](CC(C)C)C(=O)N[C@@H](CCCCN)C(N)=O)[C@@H](C)CC)[C@@H](C)CC)”, for which the conjugation yield (conjugation step) is recorded as 55%. For the same substance, under setting [1], the “final HPLC purity” value turned out to be 86%.

In the case of “HELM PEPTIDE1{[NNCC(=O)[*:2]].I.K.K.I.L.S.K.I.K.K.L.L.K.[am]}$$$$V2.0 (SMILES CC[C@H](C)[C@H](NC(=O)CNN)C(=O)N[C@@H](CCCCN)C(=O)N[C@@H](CCCCN)C(=O)N[C@H](C(=O)N[C@@H](CC(C)C)C(=O)N[C@@H](CO)C(=O)N[C@@H](CCCCN)C(=O)N[C@H](C(=O)N[C@@H](CCCCN)C(=O)N[C@@H](CCCCN)C(=O)N[C@@H](CC(C)C)C(=O)N[C@@H](CC(C)C)C(=O)N[C@@H](CCCCN)C(N)=O)[C@@H](C)CC)[C@@H](C)CC)”, where the note is “whole synthesis”, the isolated mass amounted to 298 mg and the isolated yield was 37%. Under setting [2], the “crude purity (method not given)” value is 93% and the “final HPLC purity” value is on record as 97%.

“L-K6 peptide amide (IKKILSKIKKLLK; N-terminal hydrazinoacetyl; C-terminal amide; printed: Ile-Lys-Lys-Ile-Leu-Ser-Lys-Ile-Lys-Lys-Leu-Leu-Lys-)”: the “purity (crude or final not stated)” value under setting [2] is on record as 95%.
